Data as given in the supplement of paper PMC7661543.
Differences between knockout arms are mostly noise.

System: MDA-MB-231
Assay: relative cell number vs DMSO control (72 h) (% of DMSO); higher = less growth inhibition (more cells)
Method: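 QMAP-Seq: a pool of 5 breast cancer cell lines (ZR-75-1, SKBR3, HCC-38, MDA-MB-231, BT-20), each carrying 12 doxycycline-inducible Cas9 sgRNA perturbations (11 knockouts plus non-targeting sgNT), was treated with compounds for 72 h at four 10-fold doses (10 nM-10 uM or 1 nM-1 uM range). Barcodes were amplified and sequenced, and cell number was interpolated from 293T spike-in standard curves. The result is expressed as % of the median of DMSO wells. Two biological replicates.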

Cc1ncc([N+](=O)[O-])n1CC(O)CCl (configuration not stated) [Ornidazole]
Details | relative cell number
sgRNA knockout: sgATF3, 10 nM | 85.5
sgRNA knockout: sgATF3, 100 nM | 103
sgRNA knockout: sgATF3, 1000 nM | 103
sgRNA knockout: sgATF3, 10000 nM | 88.4
sgRNA knockout: sgATF4, 10 nM | 119
sgRNA knockout: sgATF4, 100 nM | 90.9
sgRNA knockout: sgATF4, 1000 nM | 113
sgRNA knockout: sgATF4, 10000 nM | 123
sgRNA knockout: sgATF6, 10 nM | 84.1
sgRNA knockout: sgATF6, 100 nM | 88.7
sgRNA knockout: sgATF6, 1000 nM | 102
sgRNA knockout: sgATF6, 10000 nM | 118
sgRNA knockout: sgATG7, 10 nM | 87.9
sgRNA knockout: sgATG7, 100 nM | 116
sgRNA knockout: sgATG7, 1000 nM | 114
sgRNA knockout: sgATG7, 10000 nM | 92.6
sgRNA knockout: sgERN1, 10 nM | 74.5
sgRNA knockout: sgERN1, 100 nM | 102
sgRNA knockout: sgERN1, 1000 nM | 94.4
sgRNA knockout: sgERN1, 10000 nM | 96.4
sgRNA knockout: sgHSF1, 10 nM | 99.3
sgRNA knockout: sgHSF1, 100 nM | 104
sgRNA knockout: sgHSF1, 1000 nM | 99.3
sgRNA knockout: sgHSF1, 10000 nM | 88.2
sgRNA knockout: sgHSF2, 10 nM | 97
sgRNA knockout: sgHSF2, 100 nM | 103
sgRNA knockout: sgHSF2, 1000 nM | 95.4
sgRNA knockout: sgHSF2, 10000 nM | 113
sgRNA knockout: sgKEAP1, 10 nM | 89.8
sgRNA knockout: sgKEAP1, 100 nM | 114
sgRNA knockout: sgKEAP1, 1000 nM | 119
sgRNA knockout: sgKEAP1, 10000 nM | 111
sgRNA knockout: sgNFE2L2, 10 nM | 73.8
sgRNA knockout: sgNFE2L2, 100 nM | 103
sgRNA knockout: sgNFE2L2, 1000 nM | 99.8
sgRNA knockout: sgNFE2L2, 10000 nM | 102.1
sgRNA knockout: sgSLC35F2, 10 nM | 88.9
sgRNA knockout: sgSLC35F2, 100 nM | 89.86
sgRNA knockout: sgSLC35F2, 1000 nM | 111
sgRNA knockout: sgSLC35F2, 10000 nM | 81.4
sgRNA knockout: sgXBP1, 10 nM | 110
sgRNA knockout: sgXBP1, 100 nM | 97.5
sgRNA knockout: sgXBP1, 1000 nM | 96.7
sgRNA knockout: sgXBP1, 10000 nM | 98.5

CC(=O)Nc1nc(C)c(-c2ccc(Cl)c(S(=O)(=O)NCCO)c2)s1 [PIK93]
Details | relative cell number
sgRNA knockout: sgATF3, 10 nM | 104
sgRNA knockout: sgATF3, 100 nM | 91.1
sgRNA knockout: sgATF3, 1000 nM | 104
sgRNA knockout: sgATF3, 10000 nM | 55.6
sgRNA knockout: sgATF4, 10 nM | 101
sgRNA knockout: sgATF4, 100 nM | 101
sgRNA knockout: sgATF4, 1000 nM | 75.5
sgRNA knockout: sgATF4, 10000 nM | 46.9
sgRNA knockout: sgATF6, 10 nM | 86.9
sgRNA knockout: sgATF6, 100 nM | 85.3
sgRNA knockout: sgATF6, 1000 nM | 95.2
sgRNA knockout: sgATF6, 10000 nM | 63
sgRNA knockout: sgATG7, 10 nM | 116
sgRNA knockout: sgATG7, 100 nM | 104
sgRNA knockout: sgATG7, 1000 nM | 78.8
sgRNA knockout: sgATG7, 10000 nM | 56.1
sgRNA knockout: sgERN1, 10 nM | 117
sgRNA knockout: sgERN1, 100 nM | 107
sgRNA knockout: sgERN1, 1000 nM | 92
sgRNA knockout: sgERN1, 10000 nM | 49
sgRNA knockout: sgHSF1, 10 nM | 91.6
sgRNA knockout: sgHSF1, 100 nM | 95.1
sgRNA knockout: sgHSF1, 1000 nM | 82.4
sgRNA knockout: sgHSF1, 10000 nM | 53.7
sgRNA knockout: sgHSF2, 10 nM | 102
sgRNA knockout: sgHSF2, 100 nM | 82.7
sgRNA knockout: sgHSF2, 1000 nM | 78.9
sgRNA knockout: sgHSF2, 10000 nM | 60.8
sgRNA knockout: sgKEAP1, 10 nM | 99.2
sgRNA knockout: sgKEAP1, 100 nM | 126
sgRNA knockout: sgKEAP1, 1000 nM | 88.4
sgRNA knockout: sgKEAP1, 10000 nM | 75
sgRNA knockout: sgNFE2L2, 10 nM | 111
sgRNA knockout: sgNFE2L2, 100 nM | 109
sgRNA knockout: sgNFE2L2, 1000 nM | 106
sgRNA knockout: sgNFE2L2, 10000 nM | 64.3
sgRNA knockout: sgSLC35F2, 10 nM | 103
sgRNA knockout: sgSLC35F2, 100 nM | 70.4
sgRNA knockout: sgSLC35F2, 1000 nM | 83.6
sgRNA knockout: sgSLC35F2, 10000 nM | 51.1
sgRNA knockout: sgXBP1, 10 nM | 97.3
sgRNA knockout: sgXBP1, 100 nM | 90.3
sgRNA knockout: sgXBP1, 1000 nM | 81.3
sgRNA knockout: sgXBP1, 10000 nM | 61

CCC(C)SSc1ncc[nH]1 (configuration not stated) [PX12]
Details | relative cell number
sgRNA knockout: sgATF3, 10 nM | 105
sgRNA knockout: sgATF3, 100 nM | 115
sgRNA knockout: sgATF3, 1000 nM | 96.2
sgRNA knockout: sgATF3, 10000 nM | 49.1
sgRNA knockout: sgATF4, 10 nM | 105
sgRNA knockout: sgATF4, 100 nM | 120
sgRNA knockout: sgATF4, 1000 nM | 111
sgRNA knockout: sgATF4, 10000 nM | 56
sgRNA knockout: sgATF6, 10 nM | 100
sgRNA knockout: sgATF6, 100 nM | 110
sgRNA knockout: sgATF6, 1000 nM | 96.52
sgRNA knockout: sgATF6, 10000 nM | 45.4
sgRNA knockout: sgATG7, 10 nM | 98.1
sgRNA knockout: sgATG7, 100 nM | 104.5
sgRNA knockout: sgATG7, 1000 nM | 82.9
sgRNA knockout: sgATG7, 10000 nM | 53.9
sgRNA knockout: sgERN1, 10 nM | 124
sgRNA knockout: sgERN1, 100 nM | 111
sgRNA knockout: sgERN1, 1000 nM | 110
sgRNA knockout: sgERN1, 10000 nM | 48.2
sgRNA knockout: sgHSF1, 10 nM | 105
sgRNA knockout: sgHSF1, 100 nM | 88.9
sgRNA knockout: sgHSF1, 1000 nM | 106
sgRNA knockout: sgHSF1, 10000 nM | 52.11
sgRNA knockout: sgHSF2, 10 nM | 111
sgRNA knockout: sgHSF2, 100 nM | 115
sgRNA knockout: sgHSF2, 1000 nM | 98
sgRNA knockout: sgHSF2, 10000 nM | 46.7
sgRNA knockout: sgKEAP1, 10 nM | 118
sgRNA knockout: sgKEAP1, 100 nM | 94
sgRNA knockout: sgKEAP1, 1000 nM | 115
sgRNA knockout: sgKEAP1, 10000 nM | 63.4
sgRNA knockout: sgNFE2L2, 10 nM | 93.4
sgRNA knockout: sgNFE2L2, 100 nM | 132
sgRNA knockout: sgNFE2L2, 1000 nM | 101
sgRNA knockout: sgNFE2L2, 10000 nM | 49.9
sgRNA knockout: sgSLC35F2, 10 nM | 109
sgRNA knockout: sgSLC35F2, 100 nM | 95.8
sgRNA knockout: sgSLC35F2, 1000 nM | 93.84
sgRNA knockout: sgSLC35F2, 10000 nM | 56.9
sgRNA knockout: sgXBP1, 10 nM | 101
sgRNA knockout: sgXBP1, 100 nM | 93.9
sgRNA knockout: sgXBP1, 1000 nM | 81.9
sgRNA knockout: sgXBP1, 10000 nM | 49.2
